{"source": "PubChem BioAssay AID1688", "about": "(National Center for Advancing Translational Sciences (NCATS), 2009)", "note": "About 2,400 (1.1%) of roughly 220,000 compounds were called active. Inconclusive results, whose numbers are uncertain, are shown with a selection of clear calls. Calls come from the whole dose curve; as a rule, active = well fitted inhibition curve with a large enough effect; inconclusive = small, poorly fitted or top-dose-only effect, or effect the other way; inactive = no such curve, though single readings can be large or run the other way. Where the call is inconclusive, the potency comes from a doubtful curve fit. % is set by controls: 0 for no effect and ±100 for the full control effect; potency is the fitted concentration of half-maximal effect."}
{"test": "qHTS Multiplex Assay to Identify Dual Action Probes in a Cell Model of Huntington: Aggregate Formation (GFP); note: nearly all actives have a fitted effect of over 60% in size", "settings": "PC12 HttQ103-GFP aggregates, Acumen cytometry, 40 h; activity change, negative = inhibition: at 46.1 µM (top of the series) unless noted", "how_it_was_run": "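Compounds (qHTS titration) were added to PC12 cells expressing an ecdysone-driven HTT exon 1 Q103–GFP fusion after induction with 100 nM tebufenozide. Aggregate formation was measured as GFP objects in cell lysates.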"}
{"smiles": "CN(CC(=O)O/N=C(\\N)c1cccc([N+](=O)[O-])c1)S(=O)(=O)c1ccccc1", "Potency": "inconclusive: 25.1 µM [inhibitor, single point]"}
{"smiles": "Nc1nc(=S)c2ncn(C3CCCC3)c2[nH]1", "activity change, negative = inhibition": "inactive: 5.72% [at 9.22 µM]"}
{"smiles": "COc1cccc(C(=O)Oc2c(CN3CCOCC3)cc(Cl)c3cccnc23)c1", "Potency": "active: 11.2 µM"}
{"smiles": "CC(C)CCN1C(=O)c2ccc(-c3nc4ccccc4c(=O)o3)cc2C1=O", "Potency": "inactive"}
{"smiles": "CCc1cccc(CC)c1NC(=S)NC(C)c1ccccc1", "note": "(configuration not stated)", "Potency": "inconclusive: 1.58 µM [inhibitor, partial curve]"}
{"smiles": "COCc1ccc([C@@H]2C[C@H]3CN(Cc4cccnc4)C(=O)[C@]34CCCN24)o1", "activity change, negative = inhibition": "inactive: -28.1% [at 9.22 µM]"}
{"smiles": "CC(C)C(=O)Nc1ccc(C(=O)Nc2nnc(C(C)(C)C)s2)cc1", "Potency": "inconclusive: 0.891 µM [activator, partial curve]"}
{"smiles": "O=C(Nc1nc(COc2ccccc2)cs1)C12CC3CC(CC(C3)C1)C2", "Potency": "active: 11.2 µM"}
{"smiles": "O=C(CCCc1ccccc1)NCc1cn2ccsc2n1", "Potency": "inconclusive: 1.26 µM [activator, single point]"}
{"smiles": "COc1ccc(C(=O)c2cc3cccc(OC)c3o2)cc1", "Potency": "inconclusive: 31.6 µM [inhibitor, single point]"}
{"smiles": "COc1ccccc1NS(=O)(=O)c1cccc(NC(=O)c2[nH]c(C)c(C(C)=O)c2C)c1", "activity change, negative = inhibition": "inactive: 23.2% [at 9.22 µM]"}
{"smiles": "CCc1cc(-c2[nH]ncc2-c2ccc3c(c2)OCO3)c(O)cc1O", "Potency": "active: 11.2 µM"}
{"smiles": "O=C(C1CCCN(S(=O)(=O)c2ccc(Cl)cc2)C1)N(Cc1cccs1)C1CC1", "note": "(configuration not stated)", "Potency": "inconclusive: 35.5 µM [inhibitor, single point]"}
{"smiles": "CCOC(=O)C1=C(CSc2nc3ccccc3s2)NC(=O)NC1c1cc(C)ccc1C", "note": "(configuration not stated)", "Potency": "inactive"}
{"smiles": "O=C(Nc1nnc(-c2ccc3c(c2)CCCC3)o1)c1ccccc1", "Potency": "inconclusive: 7.08 µM [inhibitor, partial curve]"}
{"smiles": "C=CCn1c(SCc2ccc(OC)cc2)nnc1-c1cccnc1", "Potency": "inactive"}
{"smiles": "CCCCNC(=O)c1sc(=S)n2c1[nH]c(=O)c1ccccc12", "Potency": "inconclusive: 11.2 µM [inhibitor, single point]"}
{"smiles": "Cc1cc2c(c(=O)o1)C1(C(=O)N(C)c3ccccc31)C(C#N)=C(N)O2", "note": "(configuration not stated)", "Potency": "inactive"}
{"smiles": "CCN(CC)S(=O)(=O)c1ccc(NS(=O)(=O)c2cccs2)cc1", "Potency": "inactive"}
{"smiles": "Cc1ccc(NC(=O)CCn2c(=O)[nH]c3ccsc3c2=O)cc1", "Potency": "inconclusive: 0.501 µM [activator, full curve, poor fit]"}
{"smiles": "Cc1ccccc1Cn1ccc(NC(=O)c2cnn3c(C(F)(F)F)cc(-c4ccco4)nc23)n1", "Potency": "inconclusive: 25.1 µM [inhibitor, partial curve]"}
{"smiles": "Cc1ccc(C)c(Oc2coc3cc(OCC(=O)Nc4ccccc4C(C)C)ccc3c2=O)c1", "Potency": "inconclusive: 2.82 µM [inhibitor, partial curve]"}
{"smiles": "CC1CCCC(C)N1S(=O)(=O)c1ccc(NC(=O)CCn2cnc3ccccc3c2=O)cc1", "note": "(configuration not stated)", "Potency": "inconclusive: 10 µM [activator, partial curve]"}
{"smiles": "CCCN(CC(=O)Nc1ccc(Cl)cc1Cl)C(=O)/C=C/c1ccco1", "Potency": "inconclusive: 11.2 µM [activator, partial curve]"}
{"smiles": "CCc1cc(/C(Cc2ccccn2)=N\\O)c(O)cc1O", "Potency": "inconclusive: 35.5 µM [inhibitor, single point]"}
{"smiles": "Cn1c(CSCc2ccc(F)cc2)nnc1SCC(=O)Nc1nccs1", "Potency": "inconclusive: 17.8 µM [inhibitor, partial curve]"}
{"smiles": "CC(/C=C1\\SC(=O)N(CCCC(=O)O)C1=O)=C\\c1ccccc1", "Potency": "inconclusive: 35.5 µM [activator, single point]"}
{"smiles": "Cc1cc([N+](=O)[O-])nn1CC(=O)c1ccccc1", "Potency": "inconclusive: 5.62 µM [activator, partial curve]"}
{"smiles": "C#CC(=O)N(c1cc(OC)ccc1OC)C(C(=O)NC1CCCC1)c1cccs1", "note": "(configuration not stated)", "Potency": "inconclusive: 15.8 µM [inhibitor, single point]"}
{"smiles": "COc1ccc(-n2cccc2/C=C/[N+](=O)[O-])cc1", "Potency": "inconclusive: 35.5 µM [inhibitor, single point]"}
{"smiles": "CCOC(=O)c1ccc(NC2=CC(=O)C(=O)c3ccccc32)cc1", "Potency": "inconclusive: 12.6 µM [inhibitor, partial curve, poor fit]"}
{"smiles": "N#Cc1c(NC(=O)CCn2cnc3ccccc3c2=O)oc(-c2ccccc2)c1-c1ccccc1", "Potency": "inconclusive: 35.5 µM [inhibitor, single point]"}
{"smiles": "CCN(CC)c1ccc(NC(=O)CN2CCN(S(=O)(=O)c3cc(Cl)ccc3OC)CC2)cc1", "Potency": "inconclusive: 35.5 µM [inhibitor, single point]"}
{"smiles": "Cc1ccc(Sc2ncccc2COC(=O)Nc2ccccc2)cc1", "Potency": "inconclusive: 15.8 µM [inhibitor, single point]"}
{"smiles": "COc1cc(S(=O)(=O)Nc2ccc(C)cc2)ccc1N=Cc1c(C)[nH]n(-c2ccc(C)cc2)c1=O", "Potency": "inactive"}
{"smiles": "C=CCn1c(SCC(=O)NC2CCCCC2)nnc1-c1ccc(OC)cc1", "Potency": "inconclusive: 12.6 µM [activator, partial curve, poor fit]"}
{"smiles": "COc1ccc(C(=O)OC(C)C(=O)Nc2cc(C(F)(F)F)ccc2Cl)c(OC)c1OC", "note": "(configuration not stated)", "Potency": "inactive"}
{"smiles": "COc1cc(NC(=O)C/C(C)=N/NC(=O)C(=O)NC2CCCCC2)c(OC)cc1Cl", "Potency": "inconclusive: 14.1 µM [inhibitor, single point]"}
{"smiles": "CC(C(=O)NC(=O)NC1CCCCC1)N1CCN(C(c2ccccc2)c2ccccc2)CC1", "note": "(configuration not stated)", "Potency": "inconclusive: 1.12 µM [inhibitor, full curve]"}
{"smiles": "O=C(c1ccco1)[C@@H]1[C@@H]2C(=O)N(c3ccc(F)cc3)C(=O)[C@@H]2C2c3ccccc3C=CN21", "note": "(some centres not stated)", "Potency": "inactive"}
{"smiles": "Cc1cc(-c2cccs2)c2c(n1)sc1c(=O)[nH]c(=O)[nH]c12", "Potency": "inconclusive: 17.8 µM [inhibitor, single point]"}
{"smiles": "CCCNC(=O)CSc1nnc(-c2ccccc2Br)n1-c1cccc(C(F)(F)F)c1", "Potency": "inconclusive: 35.5 µM [activator, single point]"}
{"smiles": "NS(=O)(=O)c1ccc(N/N=C/c2cn(-c3ccccc3)nc2-c2ccccc2)c([N+](=O)[O-])c1", "Potency": "inconclusive: 14.1 µM [inhibitor, single point]"}
{"smiles": "COC(=O)N/N=C/c1cn(CC(C)COc2ccccc2)c2ccccc12", "note": "(configuration not stated)", "Potency": "inconclusive: 14.1 µM [inhibitor, partial curve]"}
{"smiles": "COc1ccccc1N1CCN(Cc2ccc(OC)c3ccccc23)CC1", "Potency": "inconclusive: 11.2 µM [inhibitor, partial curve]"}
{"smiles": "O=C(/C=C/c1ccco1)N(c1ccccn1)c1ccccn1", "Potency": "inconclusive: 15.8 µM [activator, single point]"}
{"smiles": "NNC(=O)c1ccc(COc2ccc3c(c2)CCC3)o1", "Potency": "inconclusive: 2 µM [inhibitor, partial curve]"}
{"smiles": "O=C(COC(=O)c1cccs1)c1ccc2ccccc2c1", "Potency": "inactive"}
{"smiles": "O=[N+]([O-])c1cc(-c2nnc(Nc3ccc(O)cc3)c3ccccc23)ccc1N1CCOCC1", "Potency": "inconclusive: 17.8 µM [activator, partial curve]"}
{"smiles": "C/C(CC(=O)Nc1cc(Cl)ccc1Cl)=N\\NC(=O)c1ccccc1Br", "Potency": "inconclusive: 35.5 µM [inhibitor, single point]"}
{"smiles": "Cc1ccc(NS(=O)(=O)c2ccc(C(=O)N3CCN(c4ncccn4)CC3)cc2)cc1", "Potency": "active: 2.51 µM"}
{"smiles": "CN(Cc1ccccc1)c1ccc2nnc(-c3ccccc3)n2n1", "Potency": "active: 35.5 µM"}
{"smiles": "CCN(CC)c1ccc(/C=C2/SC(=O)N(C(C)C)C2=O)o1", "Potency": "inconclusive: 35.5 µM [inhibitor, single point]"}
{"smiles": "CC(C)(C)c1ccc(CSc2nnc(-c3ccccn3)n2Cc2ccco2)cc1", "Potency": "active: 14.1 µM"}
{"smiles": "N#CC1(NC(=O)CN2CCc3ccccc3C2)CCCC1", "Potency": "inactive"}
{"smiles": "Cn1c(=O)n(CCc2ccccc2)c(=O)c2c1nc1n2CCCN1Cc1ccccc1", "Potency": "inactive"}
{"smiles": "COc1ccc(C2CC(C(F)(F)F)n3ncc(C(=O)NCC4CCCO4)c3N2)cc1OC", "note": "(configuration not stated)", "Potency": "inconclusive: 8.91 µM [activator, partial curve]"}
{"smiles": "O=C(O)c1ccc(COc2ccccc2/C=C2/NC(=O)N(c3cccc(Cl)c3)C2=O)cc1", "Potency": "inconclusive: 22.4 µM [activator, single point]"}
{"smiles": "COc1ccc(CCNc2ccc(S(=O)(=O)N3CCCC3)cc2[N+](=O)[O-])cc1", "Potency": "inactive"}
{"smiles": "CCCCn1c(NC(=O)c2ccccc2)c(C#N)c2nc3ccccc3nc21", "Potency": "inactive"}
{"smiles": "COc1ccc(OC)c(C2C(C#N)=C(N)Oc3c2c(C)nn3-c2cccc(Cl)c2)c1", "note": "(configuration not stated)", "Potency": "inconclusive: 28.2 µM [inhibitor, single point]"}
{"smiles": "CCOC(=O)N1CCN(c2c(-c3ccc(C)cc3)c(=O)c2=O)CC1", "Potency": "inactive"}
{"smiles": "COCCNC(=O)Cn1cc(/C=N/NC(=O)c2ccc(Oc3ccc(O)cc3)cc2)c2ccccc21", "Potency": "inconclusive: 22.4 µM [inhibitor, single point]"}
{"smiles": "CCN1CCN(c2cc(-c3ccccc3)nc3cc(-c4cccc(F)c4)nn23)CC1", "Potency": "inconclusive: 22.4 µM [inhibitor, partial curve]"}
{"smiles": "N#Cc1ccccc1NC(=O)c1ccc(-c2ccccc2Cl)o1", "Potency": "inconclusive: 0.316 µM [inhibitor, full curve, poor fit]"}
{"smiles": "Cc1ccc(S(=O)(=O)Cc2ccc(C(=O)NCc3ccc4c(c3)OCO4)o2)cc1", "Potency": "inconclusive: 5.62 µM [inhibitor, single point]"}
{"smiles": "Cc1nc2c(C(=O)O)cnn2c(C)c1Cc1ccccc1F", "Potency": "inactive"}
